# Values quoted from earlier work, collected in patent US10457654B2 (GENENTECH, INC., priority 2017, dated 2019).
# Settings: administered topically (Lidoderm patch); NDA 20-612; cited from earlier work
structure (smiles),measurement,value
CCN(CC)CC(=O)Nc1c(C)cccc1C [lidocaine],plasma concentrations,about 1 μM
